## Primary screen of a compound library

The chains behind the UniProt entries cited, without tags or fusion partners.
UniProt E9BF75, entry or part of it: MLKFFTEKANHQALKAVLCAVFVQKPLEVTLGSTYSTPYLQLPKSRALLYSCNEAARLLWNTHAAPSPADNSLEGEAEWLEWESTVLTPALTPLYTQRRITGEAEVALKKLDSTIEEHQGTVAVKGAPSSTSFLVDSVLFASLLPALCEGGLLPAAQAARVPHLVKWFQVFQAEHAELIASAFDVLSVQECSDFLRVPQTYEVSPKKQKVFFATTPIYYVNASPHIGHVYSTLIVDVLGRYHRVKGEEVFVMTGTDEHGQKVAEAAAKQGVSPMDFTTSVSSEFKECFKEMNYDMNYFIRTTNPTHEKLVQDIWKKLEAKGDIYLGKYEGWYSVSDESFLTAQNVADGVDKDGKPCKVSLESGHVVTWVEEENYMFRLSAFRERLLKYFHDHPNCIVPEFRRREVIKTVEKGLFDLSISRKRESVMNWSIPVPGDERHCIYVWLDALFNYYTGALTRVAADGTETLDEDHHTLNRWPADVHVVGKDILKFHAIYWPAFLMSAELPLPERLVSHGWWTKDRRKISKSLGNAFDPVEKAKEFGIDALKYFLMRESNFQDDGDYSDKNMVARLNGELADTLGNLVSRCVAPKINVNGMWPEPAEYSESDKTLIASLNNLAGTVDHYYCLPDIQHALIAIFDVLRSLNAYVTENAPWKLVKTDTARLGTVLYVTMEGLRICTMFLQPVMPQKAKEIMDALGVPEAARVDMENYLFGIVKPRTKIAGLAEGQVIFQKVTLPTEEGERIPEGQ

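Methionyl-tRNA synthetase (putative), Leishmania donovani (UniProt E9BF75). Primary screen of methionyl-tRNA synthetase; the read-out is not stated. The test concentration is not given. The values are filed as inhibition. Size under these conditions: about 68,000 compounds, about 24 of them at 50% or above in at least one test.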

Results are percentages, as filed.
The record does not define 0% and 100%; most values in the screen are far below 50% and negative numbers occur (in some assays of this library far below -100).
This is an unselected part of the compounds tested.

| # | structure | Inhibition |
|---|---|---|
| 1 | `Cc1ccccc1-c1csc2c(=O)[nH]c(N3CCCC(C(=O)O)C3)nc12` (configuration not stated) | -0.7194 |
| 2 | `COC1CCN(c2ccc(NC(=O)Cn3cccn3)cc2)CC1` | 11.78 |
| 3 | `COc1ccc(CNC(=O)NC2CCN(CC3CCCC3)CC2)cn1` | 17.1 |
| 4 | `CC(=O)N(Cc1ncc(C)o1)C1CCN(Cc2csc(C)n2)C1` (configuration not stated) | 16.57 |
| 5 | `CCc1nc(NC2CCCN(C(=O)c3cccs3)C2)c2cnn(C)c2n1` (configuration not stated) | -0.7853 |
| 6 | `Cn1ccnc1CNC(=O)c1ccnc(C2CCNCC2)c1` | 5.938 |
| 7 | `Cc1ccc2nc(CN3CCC(O)(Cn4ccnc4)CC3)cc(O)c2c1` | -2.211 |
| 8 | `Cn1ccc(C(=O)NCc2ccc(CN3CCCC3)cc2)cc1=O` | 21.59 |
| 9 | `Cc1cccc(C)c1OCC(=O)NC(C)c1nnc2n1CCC2` (configuration not stated) | -1.681 |
| 10 | `O=C(NCC1CC1)C12CC(CN1Cc1nccs1)C2` | 11.96 |
| 11 | `CC(C)N1CCOCC2(CCCN(C(=O)c3cn(C)cn3)C2)C1` (configuration not stated) | 9.63 |
| 12 | `Cc1csc(NC(=O)CN(C)CC2CCCN2c2cccnn2)n1` (configuration not stated) | 19.05 |
| 13 | `O=C(NCc1ccc(-n2cncn2)nc1)N(CC1CCOC1)C1CC1` (configuration not stated) | 9.926 |
| 14 | `O=C1CO[C@H]2CN(Cc3cccnc3)C[C@H]2N1` | 4.407 |
| 15 | `CSC1=Nc2c(cnn2-c2ccccc2)C2=NCCCN12` | 6.857 |
| 16 | `O=S1(=O)NC(c2ccnc(N3CCOCC3)n2)=Nc2ccccc21` | 13.65 |
| 17 | `Cc1nn(C)cc1CN(C)C(=O)c1ccccn1` | 12.16 |
| 18 | `O=c1ccc(-n2cccn2)nn1CCNS(=O)(=O)c1ccc(F)c(Cl)c1` | 13.67 |
| 19 | `CCN1CC[C@@H]2OC[C@H](C(=O)NCc3cccs3)C[C@@H]2C1` | -0.5168 |
| 20 | `O=C(CC1CCCC1)NCCS(=O)(=O)N1CCN(c2ncccn2)CC1` | 8.192 |
| 21 | `COCCN(Cc1ccoc1)C(=O)CSc1ccc(F)cc1` | 13.28 |
| 22 | `CN(c1ncnc2ccccc12)C1CCCN(c2cccnn2)C1` (configuration not stated) | 37.12 |
| 23 | `N#CCCN(C(=O)CN1CCCC1c1ccccc1Cl)c1ccccc1` (configuration not stated) | 7.143 |
| 24 | `Cc1c[nH]c(C(=O)N2CCCC2c2ccc(C(=O)N3CCSCC3)s2)n1` (configuration not stated) | 12.71 |
| 25 | `O=c1[nH]c2nc(NCC3CCCO3)ncc2c(=O)n1-c1cccc(F)c1` (configuration not stated) | 15.53 |
| 26 | `CCCc1cc(NC2CCc3nc(C)nn3C2)n2ncnc2n1` (configuration not stated) | 18.56 |
| 27 | `Cc1cc(C)n(C2CN(CC(=O)NCc3ccccn3)C2)n1` | 9.296 |
| 28 | `CCn1cnnc1CNC(=O)N1CCOC(c2ccc(F)cc2)C1` (configuration not stated) | 15.41 |
| 29 | `CO[C@@H]1CCN(Cc2ccoc2)[C@H]1Cc1ccccc1` | 4.945 |
| 30 | `CCCn1[nH]c(CNc2cccc(Cl)c2)nc1=O` | 9.913 |
| 31 | `Cc1occc1C(=O)NCC(=O)NCCOc1cccc(Cl)c1` | 8.675 |
| 32 | `CNC(=O)C1CCN(c2ncnc3c2CCN(C(=O)C2CC2)C3)C1` (configuration not stated) | 10.64 |
| 33 | `O=C1CCN(C(=O)NCc2ccccc2Oc2ccccc2)CCN1` | 6.977 |
| 34 | `CNC(=O)c1ccc(CN2CCN(C3=NCC(C)(C)S3)CC2)cc1` | 3.927 |
| 35 | `COc1ncc(C)cc1NC(=O)COc1ccccc1F` | 12.93 |
| 36 | `O=C(c1ccco1)N1CCN2C[C@H](Oc3cncnc3)C[C@H]2C1` | 14.66 |
| 37 | `Cc1noc(CN(CCc2ccco2)Cc2cccc(C#N)c2)n1` | 15.47 |
| 38 | `Fc1ccc(CN2CCOCC3(CCN(Cc4nccs4)C3)C2)cc1` (configuration not stated) | 16.29 |
| 39 | `Cn1c(-c2ccc(F)cc2)cn2cc(C(=O)N3CC[C@@H](O)C3)nc2c1=O` | 9.278 |
| 40 | `Cc1cc(C(=O)N2CCC(n3nc(C)cc3C)C2)c2ccc(F)cc2n1` (configuration not stated) | -0.2725 |
| 41 | `CCN(CC1CCOC1)C(=O)c1nc(-c2ccco2)sc1C` (configuration not stated) | 0.4963 |
| 42 | `O=C(NCCNC1CCN(c2nccs2)CC1)c1cccs1` | 6.25 |
| 43 | `Cc1ccc2c(c1)CN(CC(=O)NCCc1ccc(F)cc1)CC(C)O2` (configuration not stated) | 7.216 |
| 44 | `c1csc(-c2noc(CC3CCCO3)n2)c1` (configuration not stated) | 1.882 |
| 45 | `COc1cccc(COCC(=O)N2CCCC(n3cncn3)C2)c1` (configuration not stated) | 7.055 |
| 46 | `c1ccc(-c2cnc(CN3CCCC3Cn3cccn3)o2)cc1` (configuration not stated) | 10.24 |
| 47 | `Cc1cc(NC(=O)CCn2nc(C)c3ccccc32)n(C(C)C)n1` | 11.05 |
| 48 | `O=C(Nc1nccs1)c1csc(NC2CCCC2)n1` | 15.33 |
| 49 | `Cn1c(C2CC2)nc2c1CCN(CC(=O)Nc1ccncc1)C2` | 12.05 |
| 50 | `Cc1nn(CC(C)C)c(C)c1CC(=O)N1CCCC(NS(C)(=O)=O)C1` (configuration not stated) | 5.426 |
| 51 | `Brc1ccc(CNCc2nnc3n2CCCCC3)s1` | 12.54 |
| 52 | `CCOCC(O)CN1CCN(C(=O)Cc2ccccc2C)CC1` (configuration not stated) | 14.29 |
| 53 | `CC(C)c1cc(C(=O)N2CCCC(c3cc(=O)nc4n3CCC4)C2)no1` (configuration not stated) | 8.491 |
| 54 | `O=c1c2cnc(N3CCCC3)nc2ccn1-c1cccc(C(F)(F)F)c1` | 13.77 |
| 55 | `CCC1(c2ccc(NS(=O)(=O)c3cccs3)cc2)CCC(=O)NC1=O` (configuration not stated) | 9.89 |
| 56 | `Cc1cccc(C(C(=O)NCc2nc(-c3cccnc3)no2)N(C)C)c1` (configuration not stated) | 0 |
| 57 | `CCO[C@H]1C[C@@H](O)C12CCN(C(=O)CC(F)(F)F)CC2` | 3.881 |
| 58 | `CC(C)OCCC(=O)Nc1ncn(CC(=O)N2CCCCCC2)n1` | 7.971 |
| 59 | `CC(C)(N)CNS(=O)(=O)Cc1cccc2cccnc12` | 14.92 |
| 60 | `Cc1cc(C)c2nc(CN3CCC(CN)CC3)cc(O)c2c1` | 7.692 |
| 61 | `CCn1nc(C)c2nc(C)nc(NCCCn3cccn3)c21` | -2.764 |
| 62 | `CC(NC(=O)NCCOc1ccc(F)c(F)c1)c1nncn1C` (configuration not stated) | 19.44 |
| 63 | `O=S(=O)(NCCC(O)c1cccs1)c1ccccc1Cl` (configuration not stated) | 11.51 |
| 64 | `CCN(CCCNCc1c(C)nn(C)c1N(C)C)S(C)(=O)=O` | 18.7 |
| 65 | `CC(C)NC(=O)N1CCn2c(nnc2C2CCCN2)C1` (configuration not stated) | 12 |
| 66 | `COCCn1cc2c(n1)C(CNCc1cccc(OC)c1)OCC2` (configuration not stated) | 7.107 |
| 67 | `COCCOCC(=O)N1CCCC(c2ncc[nH]2)C1` (configuration not stated) | 17.46 |
| 68 | `Fc1ccc(-c2nc(CNC3CCc4ncnn4C3)cs2)cc1` (configuration not stated) | 18.2 |
| 69 | `Cc1ccc(CN(C)C)cc1NC(=O)C1CC1` | 7.519 |
| 70 | `Cc1nc2n(n1)CC(NCCC(=O)Nc1cc(C)on1)CC2` (configuration not stated) | 18.44 |
| 71 | `CCC(C)(C)C(=O)NCCCOC1CCOC1` (configuration not stated) | 3.901 |
| 72 | `c1cnc(NCc2noc3c2CN(CCN2CCCC2)CC3)nc1` | 7.95 |
| 73 | `C[C@@H]1CN(C2(C(=O)N3CCSCC3)Cc3ccccc3C2)C[C@H](C)O1` | 2.688 |

Repeated from the top, 6 entries:

structure	Inhibition
Cc1ccccc1-c1csc2c(=O)[nH]c(N3CCCC(C(=O)O)C3)nc12 (configuration not stated)	-0.7194
COC1CCN(c2ccc(NC(=O)Cn3cccn3)cc2)CC1	11.78
COc1ccc(CNC(=O)NC2CCN(CC3CCCC3)CC2)cn1	17.1
CC(=O)N(Cc1ncc(C)o1)C1CCN(Cc2csc(C)n2)C1 (configuration not stated)	16.57
CCc1nc(NC2CCCN(C(=O)c3cccs3)C2)c2cnn(C)c2n1 (configuration not stated)	-0.7853
Cn1ccnc1CNC(=O)c1ccnc(C2CCNCC2)c1	5.938

The values are deposited in ChEMBL (CHEMBL3988442, “University of Dundee, Small-Polar-MMV Screening Library” (2021)).